In the assay the target is endogenous RYR2 of wild-type cardiomyocytes (mouse (control is MYBPC3 KO mice)) (UniProt E9Q401). Nature of the assay: proximity ligation assay in cardiomyocytes (FIGS. 2C and 2D).

The chains behind the UniProt entries cited, without tags or fusion partners.
UniProt E9Q401: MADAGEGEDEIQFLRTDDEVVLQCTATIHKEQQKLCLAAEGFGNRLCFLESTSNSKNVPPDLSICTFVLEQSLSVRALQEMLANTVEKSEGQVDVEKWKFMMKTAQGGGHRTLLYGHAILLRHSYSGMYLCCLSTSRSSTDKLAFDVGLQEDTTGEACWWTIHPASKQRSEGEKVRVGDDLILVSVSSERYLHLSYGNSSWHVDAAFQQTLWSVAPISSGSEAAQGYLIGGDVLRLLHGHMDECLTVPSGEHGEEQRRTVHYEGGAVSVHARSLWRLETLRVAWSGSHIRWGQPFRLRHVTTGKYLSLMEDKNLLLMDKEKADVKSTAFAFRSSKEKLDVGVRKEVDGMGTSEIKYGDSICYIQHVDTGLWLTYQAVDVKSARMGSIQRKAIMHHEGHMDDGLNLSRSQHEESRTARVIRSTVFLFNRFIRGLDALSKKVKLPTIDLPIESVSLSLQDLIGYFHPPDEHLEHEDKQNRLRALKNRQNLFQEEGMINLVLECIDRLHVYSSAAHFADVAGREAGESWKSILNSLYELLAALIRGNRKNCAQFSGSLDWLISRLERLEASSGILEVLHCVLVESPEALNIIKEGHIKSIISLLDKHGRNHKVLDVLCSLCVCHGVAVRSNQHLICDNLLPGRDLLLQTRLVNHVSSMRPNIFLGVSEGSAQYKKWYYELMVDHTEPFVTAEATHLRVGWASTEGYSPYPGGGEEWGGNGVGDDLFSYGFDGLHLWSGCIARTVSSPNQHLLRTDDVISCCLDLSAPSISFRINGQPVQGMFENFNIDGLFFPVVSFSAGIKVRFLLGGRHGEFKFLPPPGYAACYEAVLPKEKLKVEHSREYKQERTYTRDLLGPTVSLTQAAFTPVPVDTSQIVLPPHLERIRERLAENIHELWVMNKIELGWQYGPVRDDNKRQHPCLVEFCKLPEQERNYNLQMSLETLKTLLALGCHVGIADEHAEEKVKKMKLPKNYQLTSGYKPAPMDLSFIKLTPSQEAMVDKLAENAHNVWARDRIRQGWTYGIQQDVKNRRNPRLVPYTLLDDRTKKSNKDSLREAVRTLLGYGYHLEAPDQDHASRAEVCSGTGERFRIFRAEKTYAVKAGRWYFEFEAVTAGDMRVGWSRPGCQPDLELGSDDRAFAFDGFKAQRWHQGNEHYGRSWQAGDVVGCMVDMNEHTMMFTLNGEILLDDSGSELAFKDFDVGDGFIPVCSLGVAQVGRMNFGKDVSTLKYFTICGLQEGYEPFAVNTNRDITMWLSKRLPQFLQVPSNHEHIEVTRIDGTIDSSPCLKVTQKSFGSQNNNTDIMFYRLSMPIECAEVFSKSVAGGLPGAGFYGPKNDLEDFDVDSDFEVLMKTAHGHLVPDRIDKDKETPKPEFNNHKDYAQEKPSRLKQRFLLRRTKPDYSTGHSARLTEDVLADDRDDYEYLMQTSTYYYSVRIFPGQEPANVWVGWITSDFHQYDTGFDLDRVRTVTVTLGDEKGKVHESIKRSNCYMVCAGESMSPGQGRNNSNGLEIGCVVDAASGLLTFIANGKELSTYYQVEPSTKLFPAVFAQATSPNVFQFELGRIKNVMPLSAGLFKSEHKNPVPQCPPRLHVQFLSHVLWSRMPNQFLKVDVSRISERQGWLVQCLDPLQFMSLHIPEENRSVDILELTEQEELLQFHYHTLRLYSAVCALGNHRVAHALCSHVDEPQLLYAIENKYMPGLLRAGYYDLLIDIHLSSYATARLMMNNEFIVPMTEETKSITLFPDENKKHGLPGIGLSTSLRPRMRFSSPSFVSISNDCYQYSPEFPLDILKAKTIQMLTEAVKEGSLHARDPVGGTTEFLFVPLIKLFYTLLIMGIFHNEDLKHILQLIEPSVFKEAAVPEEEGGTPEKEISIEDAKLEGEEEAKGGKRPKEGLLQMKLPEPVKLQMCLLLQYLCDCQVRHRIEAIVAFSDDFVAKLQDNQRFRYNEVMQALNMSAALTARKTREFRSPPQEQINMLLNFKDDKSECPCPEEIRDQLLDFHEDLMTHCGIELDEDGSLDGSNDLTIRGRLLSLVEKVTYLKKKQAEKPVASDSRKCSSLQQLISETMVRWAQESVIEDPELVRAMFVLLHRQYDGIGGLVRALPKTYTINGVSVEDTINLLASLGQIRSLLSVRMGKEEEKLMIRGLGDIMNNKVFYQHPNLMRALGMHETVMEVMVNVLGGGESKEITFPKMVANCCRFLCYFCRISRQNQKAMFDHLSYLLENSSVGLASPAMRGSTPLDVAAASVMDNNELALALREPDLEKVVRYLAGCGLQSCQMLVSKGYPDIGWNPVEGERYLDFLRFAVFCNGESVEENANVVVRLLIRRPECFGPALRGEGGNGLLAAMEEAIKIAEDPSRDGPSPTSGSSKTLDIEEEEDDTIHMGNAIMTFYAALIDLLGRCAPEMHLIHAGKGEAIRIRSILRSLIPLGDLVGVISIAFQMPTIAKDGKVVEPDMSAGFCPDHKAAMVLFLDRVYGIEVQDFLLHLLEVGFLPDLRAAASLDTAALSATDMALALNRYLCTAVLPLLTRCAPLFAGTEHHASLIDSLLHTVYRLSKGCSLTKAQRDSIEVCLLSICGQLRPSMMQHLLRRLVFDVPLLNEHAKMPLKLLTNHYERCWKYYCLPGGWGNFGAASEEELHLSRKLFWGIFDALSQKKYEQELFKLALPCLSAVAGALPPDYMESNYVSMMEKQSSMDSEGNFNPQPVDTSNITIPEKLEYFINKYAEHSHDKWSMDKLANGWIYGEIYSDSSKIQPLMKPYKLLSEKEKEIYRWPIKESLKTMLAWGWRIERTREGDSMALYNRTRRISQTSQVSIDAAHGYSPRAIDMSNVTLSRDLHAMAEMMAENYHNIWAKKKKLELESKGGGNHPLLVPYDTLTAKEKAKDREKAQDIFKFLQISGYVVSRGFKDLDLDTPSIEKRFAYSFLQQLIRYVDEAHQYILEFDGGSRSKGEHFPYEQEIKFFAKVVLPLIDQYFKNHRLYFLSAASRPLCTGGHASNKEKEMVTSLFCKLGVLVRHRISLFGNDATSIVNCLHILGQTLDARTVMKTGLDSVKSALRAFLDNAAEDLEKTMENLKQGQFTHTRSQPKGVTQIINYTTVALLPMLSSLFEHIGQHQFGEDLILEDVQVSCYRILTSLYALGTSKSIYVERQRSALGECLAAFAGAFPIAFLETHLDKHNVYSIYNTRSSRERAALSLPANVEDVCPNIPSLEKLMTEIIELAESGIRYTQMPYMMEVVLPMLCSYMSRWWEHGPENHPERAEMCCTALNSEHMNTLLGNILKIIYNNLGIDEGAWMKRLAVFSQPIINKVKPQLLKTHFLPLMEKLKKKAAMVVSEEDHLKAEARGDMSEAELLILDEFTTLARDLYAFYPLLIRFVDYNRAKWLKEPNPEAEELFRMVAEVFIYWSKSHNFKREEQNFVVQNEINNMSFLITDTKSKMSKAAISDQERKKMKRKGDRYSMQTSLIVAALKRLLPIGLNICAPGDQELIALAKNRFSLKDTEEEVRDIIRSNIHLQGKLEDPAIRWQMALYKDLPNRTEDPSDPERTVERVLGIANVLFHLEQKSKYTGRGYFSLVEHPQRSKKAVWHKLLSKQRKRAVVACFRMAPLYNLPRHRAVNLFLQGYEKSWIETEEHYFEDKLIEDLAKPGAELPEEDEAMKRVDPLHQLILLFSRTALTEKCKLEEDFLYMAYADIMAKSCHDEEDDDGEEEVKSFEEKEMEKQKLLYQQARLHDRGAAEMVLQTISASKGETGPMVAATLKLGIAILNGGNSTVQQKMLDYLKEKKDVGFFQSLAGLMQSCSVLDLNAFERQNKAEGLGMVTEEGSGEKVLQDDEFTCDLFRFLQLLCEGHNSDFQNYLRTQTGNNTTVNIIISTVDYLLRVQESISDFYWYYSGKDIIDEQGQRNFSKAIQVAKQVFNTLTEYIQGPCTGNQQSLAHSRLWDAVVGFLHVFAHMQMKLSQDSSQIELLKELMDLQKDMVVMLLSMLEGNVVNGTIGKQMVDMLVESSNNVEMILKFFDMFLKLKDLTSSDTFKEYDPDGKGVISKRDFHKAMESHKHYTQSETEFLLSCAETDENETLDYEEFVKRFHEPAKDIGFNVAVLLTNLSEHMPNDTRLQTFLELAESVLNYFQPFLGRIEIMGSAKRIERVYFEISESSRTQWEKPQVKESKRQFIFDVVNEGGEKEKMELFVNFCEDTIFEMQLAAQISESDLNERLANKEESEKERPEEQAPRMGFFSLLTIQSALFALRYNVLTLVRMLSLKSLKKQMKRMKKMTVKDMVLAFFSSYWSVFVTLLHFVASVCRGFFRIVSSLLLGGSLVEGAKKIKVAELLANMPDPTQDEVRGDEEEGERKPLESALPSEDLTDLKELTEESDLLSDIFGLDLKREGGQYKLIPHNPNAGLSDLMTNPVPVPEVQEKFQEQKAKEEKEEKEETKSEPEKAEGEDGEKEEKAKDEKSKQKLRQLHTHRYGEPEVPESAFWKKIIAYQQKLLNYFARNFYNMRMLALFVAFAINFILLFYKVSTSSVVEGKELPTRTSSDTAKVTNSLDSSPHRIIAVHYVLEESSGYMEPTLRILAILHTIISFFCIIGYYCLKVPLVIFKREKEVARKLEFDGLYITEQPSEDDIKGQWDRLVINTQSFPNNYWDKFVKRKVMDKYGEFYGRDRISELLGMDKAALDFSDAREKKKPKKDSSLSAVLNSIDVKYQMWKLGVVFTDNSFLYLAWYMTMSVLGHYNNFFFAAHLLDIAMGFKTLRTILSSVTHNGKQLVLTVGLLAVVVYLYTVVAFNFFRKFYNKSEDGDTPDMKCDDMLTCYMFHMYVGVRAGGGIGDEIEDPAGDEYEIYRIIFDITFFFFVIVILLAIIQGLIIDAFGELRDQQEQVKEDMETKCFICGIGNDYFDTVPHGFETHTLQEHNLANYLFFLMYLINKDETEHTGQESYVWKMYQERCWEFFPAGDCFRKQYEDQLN
UniProt O70468: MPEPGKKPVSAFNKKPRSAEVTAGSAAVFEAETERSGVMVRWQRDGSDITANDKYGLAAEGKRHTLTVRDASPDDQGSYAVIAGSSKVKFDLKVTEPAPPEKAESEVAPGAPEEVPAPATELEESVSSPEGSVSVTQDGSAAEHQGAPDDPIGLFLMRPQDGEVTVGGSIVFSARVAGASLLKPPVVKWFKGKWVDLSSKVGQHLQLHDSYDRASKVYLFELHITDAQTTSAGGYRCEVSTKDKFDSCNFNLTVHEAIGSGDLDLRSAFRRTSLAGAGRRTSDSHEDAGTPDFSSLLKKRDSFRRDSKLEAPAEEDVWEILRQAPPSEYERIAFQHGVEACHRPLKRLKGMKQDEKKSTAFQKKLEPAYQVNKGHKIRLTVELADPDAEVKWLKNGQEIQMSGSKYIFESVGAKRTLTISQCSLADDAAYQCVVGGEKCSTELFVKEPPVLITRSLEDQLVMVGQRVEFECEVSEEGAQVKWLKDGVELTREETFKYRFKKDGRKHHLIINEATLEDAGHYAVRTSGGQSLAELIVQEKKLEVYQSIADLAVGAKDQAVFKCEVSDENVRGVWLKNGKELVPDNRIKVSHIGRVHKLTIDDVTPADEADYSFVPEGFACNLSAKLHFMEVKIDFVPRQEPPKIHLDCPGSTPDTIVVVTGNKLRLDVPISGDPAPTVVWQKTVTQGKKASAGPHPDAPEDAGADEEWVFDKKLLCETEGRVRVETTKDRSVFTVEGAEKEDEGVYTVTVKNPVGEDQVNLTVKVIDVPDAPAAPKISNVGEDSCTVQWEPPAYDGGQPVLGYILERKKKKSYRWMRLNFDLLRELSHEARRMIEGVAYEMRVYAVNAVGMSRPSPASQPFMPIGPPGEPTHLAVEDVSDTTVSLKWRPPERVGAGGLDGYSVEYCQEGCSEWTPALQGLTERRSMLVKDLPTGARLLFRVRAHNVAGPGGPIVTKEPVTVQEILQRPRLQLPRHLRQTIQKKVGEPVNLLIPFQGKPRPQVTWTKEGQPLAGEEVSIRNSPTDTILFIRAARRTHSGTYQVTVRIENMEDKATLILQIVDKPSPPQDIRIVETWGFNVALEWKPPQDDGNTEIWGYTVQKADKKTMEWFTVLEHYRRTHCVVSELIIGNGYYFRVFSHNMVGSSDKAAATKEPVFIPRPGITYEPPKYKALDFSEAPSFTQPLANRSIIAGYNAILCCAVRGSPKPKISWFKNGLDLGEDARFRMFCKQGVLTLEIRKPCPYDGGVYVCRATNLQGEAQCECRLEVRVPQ

These are yes or no findings as the source states them, for the method shown. Binding seen in cells or lysates may run through a third protein. Some results given as binding are weak or reduced against the parent protein; the word gives no strength.

For the substance “endogenous MYBPC3 of wild-type cardiomyocytes (from UniProt O70468 1-1270)”, the binding result is “binds”.

These data come from patent US20220023384A1.
